Structures can show the parent of a compound that is named as a salt. The list shows a part of the results. This is a noisy data set.
The compounds below were run on Peyronie's disease tunica albuginea primary fibroblasts (assay: inhibition of TGF-beta1-induced alpha-SMA expression (myofibroblast transformation), relative to TGF-beta1-only and untreated controls; higher = stronger inhibition of myofibroblast transformation). Settings: 10 µM; TGF-beta1 10 ng/mL; 72 h.

Question: For `CC1=C(C(=O)O)N2C(=O)[C@@H](NC(=O)[C@H](N)c3ccc(O)cc3)[C@H]2SC1` [Cefadroxil hydrate], which “inhibition of TGF-beta1-induced alpha-SMA expression” value (from here on “inhibition”) is on record?
Answer: 8.43%

Question: With `C=CCN1CCCC1CNC(=O)c1cc2nn[nH]c2cc1OC` (configuration not stated) [Alizapride HCl] as the compound, how does the “inhibition” value read?
Answer: -17%

Question: For `CCOC(=O)C1=C(C)NC(C)=C(C(=O)OC)C1c1cccc([N+](=O)[O-])c1` (configuration not stated) [Nitrendipine], which “inhibition” value is on record?
Answer: 39.6%

Question: Which “inhibition” value does the source give for `CCn1cc(C(=O)O)c(=O)c2cc(F)c(N3CCNCC3)cc21` [Norfloxacin] here?
Answer: 11.8%

Question: For `O=C(c1ccc(OCCN2CCCCC2)cc1)c1c(-c2ccc(O)cc2)sc2cc(O)ccc12` [Raloxifene HCl], which “inhibition” value is on record?
Answer: 8.26%

Question: `[OH][Al]([OH])[OH]` [Aluminium hydroxide] was tested. Which “inhibition” value did it give?
Answer: 6.45%

Question: Which “inhibition” value does the source give for `CC(CN1c2ccccc2Sc2ccccc21)N(C)C` (configuration not stated) [Promethazine HCl] here?
Answer: 30.8%

Question: With `CNC(=O)c1ccccc1Sc1ccc2c(/C=C/c3ccccn3)n[nH]c2c1` [Axitinib] as the compound, how does the “inhibition” value read?
Answer: -165%

Question: With `NS(=O)(=O)c1cc2c(cc1C(F)(F)F)NC(Cc1ccccc1)NS2(=O)=O` (configuration not stated) [Bendroflumethiazide] as the compound, how does the “inhibition” value read?
Answer: 15.8%

Question: With `S=P(N1CC1)(N1CC1)N1CC1` [Thiotepa] as the compound, how does the “inhibition” value read?
Answer: -8.84%

Question: Which “inhibition” value does the source give for `CCN1CCCC1CNC(=O)c1cc(S(=O)(=O)CC)c(N)cc1OC` (configuration not stated) [Amisulpride] here?
Answer: 45.1%

Question: For `CC(C)(CO)C(O)C(=O)NCCCO` (racemic) [DL-Panthenol], which “inhibition” value is on record?
Answer: 15.1%

Question: How did the “inhibition” value turn out when `Nc1nc(N)nc(-c2cc(Cl)ccc2Cl)n1` [Irsogladine] was run?
Answer: 7.66%

Question: How did the “inhibition” value turn out when `CN1CCN(c2ccc(C(=O)Nc3n[nH]c4ccc(Cc5cc(F)cc(F)c5)cc34)c(NC3CCOCC3)c2)CC1` [Entrectinib (RXDX-101)] was run?
Answer: > 100%

Question: With `CC(C)[C@H]1CC[C@H](C(=O)N[C@H](Cc2ccccc2)C(=O)O)CC1` [Nateglinide] as the compound, how does the “inhibition” value read?
Answer: 13.2%

Question: `COc1ccc(-n2nc(C(N)=O)c3c2C(=O)N(c2ccc(N4CCCCC4=O)cc2)CC3)cc1` [Apixaban] was tested. Which “inhibition” value did it give?
Answer: 9.65%

Question: How did the “inhibition” value turn out when `COc1ccccc1OCCNCC(O)COc1cccc2[nH]c3ccccc3c12` (configuration not stated) [Carvedilol] was run?
Answer: 20.6%

Question: Which “inhibition” value does the source give for `COc1ccccc1OCCNCC(O)COc1cccc2[nH]c3ccccc3c12` (configuration not stated) [Carvedilol Phosphate] here?
Answer: 68.9%

Question: Which “inhibition” value does the source give for `CC(C)c1nc(CN(C)C(=O)N[C@H](C(=O)N[C@@H](Cc2ccccc2)C[C@H](O)[C@H](Cc2ccccc2)NC(=O)OCc2cncs2)C(C)C)cs1` [Ritonavir] here?
Answer: -14.9%

Question: With `CC1CCc2cc(F)cc3c(=O)c(C(=O)O)cn1c23` (configuration not stated) [Flumequine] as the compound, how does the “inhibition” value read?
Answer: 13.4%

Question: How did the “inhibition” value turn out when `C[C@@H](O)[C@H]1C(=O)N2C(C(=O)OCOC(=O)C(C)(C)C)=C(SC3CN(C4=NCCS4)C3)[C@H](C)[C@H]12` [Tebipenem Pivoxil] was run?
Answer: 35.6%

Question: For `C1CNCCNCCNCCN1` [Cyclen], which “inhibition” value is on record?
Answer: 6.6%

Question: For `CCCCOc1ccc(OCCCN2CCOCC2)cc1` [Pramoxine HCl], which “inhibition” value is on record?
Answer: 54.7%

Question: `COC(=O)Nc1nc2cc(C(=O)c3ccc(F)cc3)ccc2[nH]1` [Flubendazole] was tested. Which “inhibition” value did it give?
Answer: 78.8%

Question: Which “inhibition” value does the source give for `CC(=O)O[C@H]1Cc2ccccc2N(C(N)=O)c2ccccc21` [Eslicarbazepine Acetate] here?
Answer: -15.4%

Question: `CCOC(=O)c1ccc(O)cc1` [Ethylparaben] was tested. Which “inhibition” value did it give?
Answer: -34.5%

Question: How did the “inhibition” value turn out when `O=C(O[C@@H]1C[C@@H]2C[C@H]3C[C@H](C1)N2CC3=O)c1c[nH]c2ccccc12` [Dolasetron] was run?
Answer: 1.22%

Question: `COc1ccc2cc1Oc1ccc(cc1)C[C@H]1c3c(cc4c(c3Oc3cc5c(cc3OC)CCN(C)[C@@H]5C2)OCO4)CCN1C` [Cepharanthine] was tested. Which “inhibition” value did it give?
Answer: 34.9%

Question: `CC(C)(C)NCC(O)c1ccc(O)c(CO)c1` (configuration not stated) [Salbutamol Sulfate] was tested. Which “inhibition” value did it give?
Answer: -8.52%

Question: How did the “inhibition” value turn out when `CC(C)(C)NCC(O)c1ccc(O)c(CO)c1` (configuration not stated) [Salbutamol] was run?
Answer: 4.41%

Question: With `O=C([O-])C(O)[C@H](O)[C@@H](O)[C@H](O)[C@H](O)CO.O=C([O-])C(O)[C@H](O)[C@@H](O)[C@H](O)[C@H](O)CO.[Ca+2]` (some centres not stated) [Calcium Gluceptate] as the compound, how does the “inhibition” value read?
Answer: 3.42%

Question: How did the “inhibition” value turn out when `Cc1c(OCC(F)(F)F)ccnc1C[S+]([O-])c1nc2ccccc2[nH]1` (configuration not stated) [Lansoprazole] was run?
Answer: 6.32%

Question: Which “inhibition” value does the source give for `Cc1nccn1CCC(C(N)=O)(c1ccccc1)c1ccccc1` [Imidafenacin] here?
Answer: 34.6%

Question: How did the “inhibition” value turn out when `CC[C@H](Nc1ncnc2[nH]cnc12)c1nc2cccc(F)c2c(=O)n1-c1ccccc1` [Idelalisib (CAL-101, GS-1101)] was run?
Answer: -27.2%

Question: For `CN(C)[C@@H](CCOc1cccc2ccccc12)c1ccccc1` [Dapoxetine HCl], which “inhibition” value is on record?
Answer: 31.5%

Question: `CCCC(CCC)C(=O)O` [Valproic acid sodium salt (Sodium valproate)] was tested. Which “inhibition” value did it give?
Answer: 33.2%

Question: With `CCCC(CCC)C(=O)O` [Divalproex Sodium] as the compound, how does the “inhibition” value read?
Answer: 36.3%

Question: How did the “inhibition” value turn out when `CCCC(CCC)C(=O)O` [Valproic acid] was run?
Answer: -18.7%

Question: With `Cc1onc(-c2ccccc2)c1C(=O)N[C@@H]1C(=O)N2[C@@H]1SC(C)(C)[C@@H]2C(=O)O` [Oxacillin sodium monohydrate] as the compound, how does the “inhibition” value read?
Answer: -3.86%

Question: With `OCC(O)CN1CCN(c2ccccc2)CC1` (configuration not stated) [Dropropizine] as the compound, how does the “inhibition” value read?
Answer: -6.37%

Question: For `COc1cc(N)c(Cl)cc1C(=O)NC1CCN(CCCOc2ccc(F)cc2)CC1OC` (configuration not stated) [Cisapride hydrate], which “inhibition” value is on record?
Answer: -22.9%

Question: How did the “inhibition” value turn out when `COc1cc(N)c(Cl)cc1C(=O)NC1CCN(CCCOc2ccc(F)cc2)CC1OC` (configuration not stated) [Cisapride] was run?
Answer: 8.03%

Question: With `CN(C)CCC(c1ccc(Cl)cc1)c1ccccn1` (configuration not stated) [Chlorpheniramine Maleate] as the compound, how does the “inhibition” value read?
Answer: 18.4%

Question: Which “inhibition” value does the source give for `CCC(=O)NCC[C@@H]1CCc2ccc3c(c21)CCO3` [Ramelteon] here?
Answer: 2.13%

Question: With `COC1=CC(=O)C[C@@H](C)[C@]12Oc1c(Cl)c(OC)cc(OC)c1C2=O` [Griseofulvin] as the compound, how does the “inhibition” value read?
Answer: 36.8%

Question: Which “inhibition” value does the source give for `O[C@@H](COc1cccc2ncccc12)CN1CCN(C2c3ccccc3[C@@H]3[C@H](c4ccccc42)C3(F)F)CC1` (some centres not stated) here?
Answer: -3.23%

Question: `NS(=O)(=O)NCCNc1nonc1/C(=N/O)Nc1ccc(F)c(Br)c1` was tested. Which “inhibition” value did it give?
Answer: 17.9%

Source: the supplement of paper PMC9744312
